Assay results reported in US20230192853A1.
Results are given in words; binding and its absence hold for the method and conditions named. Some entries that bind do so weakly or less than the wild type. Where a sequence is shown, tags or fusion partners need not be part of it.

Protein sequences, listed by entry. Tags and fused reporters are not part of them. Lines headed by an entry give the natural chain unless they say otherwise; changes in a name come on top.
UniProt P01732: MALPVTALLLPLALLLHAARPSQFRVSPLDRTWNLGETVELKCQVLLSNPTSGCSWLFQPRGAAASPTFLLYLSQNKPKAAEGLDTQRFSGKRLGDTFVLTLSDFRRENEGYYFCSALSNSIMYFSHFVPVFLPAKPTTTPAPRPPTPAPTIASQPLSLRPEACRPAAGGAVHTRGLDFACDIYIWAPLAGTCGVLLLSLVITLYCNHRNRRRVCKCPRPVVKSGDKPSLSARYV

B1: 2C8 VHH fused to a C-terminal huIgG1 Fc (Fc fusion, not shown: a dimerising Fc or GST)
chain: EVQLVESGGGLVQAGGSLRLSCAASGFTFDDYAIGWFRQAPGKGREGVLCIRIFDRHTYSADSVKGRFTISSDNAQNTVYLHMNSLKPEDTAVYYCAAGSFWACTRPEGAMDYWGKGTQVTVSS
B2: 2C8 VHH, His-tagged monomer directly labeled with ALEXA FLUOR 647 (VHH, not shown: small tags and cut ends)
VHH: B1 chain
modifications: ALEXA FLUOR 647 dye conjugated by EDC-NHS; sites not stated

Tests used:
[1] = molecular target: human CD8 on cells (HPBALL cells, TALL1 cells, CD8+ T cells of human whole blood and PBMCs) (human) (UniProt P01732); experiment: FACS on HPBALL cells, 10 µg/mL, anti-human IgG Fc AF647 detection
[2] = molecular target: human CD8 on cells (HPBALL cells, TALL1 cells, CD8+ T cells of human whole blood and PBMCs) (human) (UniProt P01732); experiment: FACS on HPBALL cells (FIG. 3)
[3] = molecular target: human CD8 on cells (HPBALL cells, TALL1 cells, CD8+ T cells of human whole blood and PBMCs) (human) (UniProt P01732); experiment: FACS on huCD8+ HPBALL cells, VHH-Fc at 10 µg/mL, detected with ALEXA FLUOR 647 goat anti-human IgG Fc; HEK cells as non-CD8 control
[4] = molecular target: human CD8 on cells (HPBALL cells, TALL1 cells, CD8+ T cells of human whole blood and PBMCs) (human) (UniProt P01732); experiment: flow cytometry on human whole blood and PBMCs, AF647-labeled VHH at 20 ng/mL

Binder | binding [1] | binding [2] | binding [3] | binding [4]
B1 | binds | binds | binds | –
B2 | – | – | – | binds
